PMC3937215
These are yes or no findings as the source states them, for the method shown. In cells and extracts the contact can be indirect. Some binding calls cover weakened binding; strength is not graded here.

Molecular target: cyclin-dependent-kinase 2 (mouse (endogenous in testis)) (UniProt P97377)
Assay: co-IP; pre-cleared lysate incubated with mouse anti-CDK2 (D-12) or IgG control, 4 h, 4°C; protein A agarose beads overnight; washed four times in 20 mM Tris pH 8.0, 150 mM NaCl, 0.1% NP40; blotted for cyclin E1 and cyclin E2

Substance: cyclin E2 (from UniProt Q9Z238 1-404)
- binding: binds
